# Measurements taken from PubChem BioAssay (NCATS).
# The other results are listed elsewhere or left out. The main result of the screen is listed elsewhere. These columns were measured beside it and carry no call. The list favours compounds with an active or inconclusive main result. Words in brackets tell the shape of the fitted curve; partial curves, single points and poor fits give uncertain potencies.
# Experiment: NCATS anti-infectives library activity on the primary C. elegans qHTS viability assay (AID 1745855)
# Details: C. elegans worm area imaging, day 7, measured here: worm number
# Summary of the method: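 GFP read-out by 488 nm laser cytometry at day 0, 3 and 7, gated on object perimeter, area and peak intensity, scored viability of PE254-GFP-FLuc worms exposed to compound in S medium with bacterial capsules at 21 °C.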
row,SMILES,AC50
1,C=C[C@@H]1C[C@]1(NC(=O)[C@@H]1C[C@@H](Oc2ncc(OC)c3ccc(Cl)cc23)CN1C(=O)[C@@H](NC(=O)OC(C)(C)C)C(C)(C)C)C(=O)NS(=O)(=O)C1CC1,"5.15 µM [falling, partial curve]"
2,Cc1cnc(-c2ccccc2C(C)C)nc1NCc1ccc(-n2ccnn2)cc1,"29 µM [falling, single point]"
3,CC(C)C[C@H](NC(=O)[C@@H](NC(=O)c1cccc(-c2ccccc2)n1)[C@@H](C)O)B(O)O,"0.258 µM [falling, full curve, poor fit]"
4,CCCCCCCCCCCCCCCCn1cc[n+](Cc2ccccc2)c1C,"14.5 µM [falling, partial curve]"
5,Cc1nc(N(C)C(=O)Cc2ccc(-c3ccccn3)cc2)sc1S(N)(=O)=O,"2.58 µM [falling, full curve]"
6,CC(C)C[C@H](NC(=O)CNC(=O)c1cc(Cl)ccc1Cl)B1OC(=O)C(CC(=O)O)(CC(=O)O)O1,"0.916 µM [falling, full curve]"

# Same assay, conditions: C. elegans worm area imaging, day 7; measured here: worm area, day 3
row,SMILES,AC50
1,CS(=O)(=O)c1cc(-c2ccccc2)cc(S(=O)(=O)c2ccc(CN)s2)c1,"23 µM [falling, single point]"
2,Cc1cccc(/C=N/Nc2cc(N3CCOCC3)nc(OCCc3ccccn3)n2)c1,"14.5 µM [falling, single point]"
3,CN(C)CC(=O)Nc1ccc2[nH]c(=O)c3ccccc3c2c1,"18.3 µM [falling, partial curve, poor fit]"
4,CC(=O)Nc1cccc(-n2c(=O)n(C3CC3)c(=O)c3c(Nc4ccc(I)cc4F)n(C)c(=O)c(C)c32)c1,"3.25 µM [falling, partial curve, poor fit]"
5,Cc1ccc(N)cc1C(=O)N[C@H](C)c1cccc2ccccc12,"11.2 µM [falling, partial curve, poor fit]"
6,COc1ccc2c(c1)[C@@H]1C[C@]1(C(=O)N1[C@@H]3CC[C@H]1CN(C)C3)Cn1c-2c(C2CCCCC2)c2ccc(C(=O)NS(=O)(=O)N(C)C)cc21,"25.8 µM [falling, partial curve, poor fit]"
7,O=C(NCc1ccco1)c1ccc2c(c1)N(Cc1c(F)cccc1Cl)C(=O)CS2,"25.8 µM [falling, single point]"
8,NS(=O)(=O)c1ccc(NC(=O)Nc2ccc(F)cc2)cc1,"14.5 µM [falling, partial curve, poor fit]"
9,O=C(/C=C\n1cnc(-c2cc(C(F)(F)F)cc(C(F)(F)F)c2)n1)NNc1cnccn1,"0.0073 µM [falling, full curve, poor fit]"
10,CC#Cc1cncc(-c2ccc3c(c2)[C@@]2(N=C(C)C(N)=N2)C2(CCC(OC)CC2)C3)c1 (some centres not stated),"36.5 µM [falling, single point]"
11,CC(C)C[C@H](NC(=O)[C@H](Cc1ccccc1)NC(=O)c1cnccn1)B(O)O,"11.5 µM [falling, partial curve]"
12,CCOC(=O)c1c(C)sc(-c2c(-c3ccc(OC)c(F)c3)[nH]c3c2c(=O)[nH]c(=O)n3C)c1O,"0.0816 µM [falling, full curve, poor fit]"
13,O=C(O)c1ccccc1O,"36.5 µM [rising, single point]"
14,O=c1[nH]cc(F)c(=O)[nH]1,"0.0205 µM [falling, full curve, poor fit]"
15,C[n+]1cccc(C(=O)[O-])c1,"25.8 µM [falling, single point]"
16,Cc1onc(-c2ccccc2)c1C(=O)N1CCN(c2ccc([N+](=O)[O-])cc2Cl)CC1,"0.325 µM [falling, full curve, poor fit]"

row,SMILES,AC50
1,CCCCCCOc1ccccc1C(N)=O,"2.05 µM [falling, partial curve, poor fit]"
2,O=C(/C=C\n1cnc(-c2cc(C(F)(F)F)cc(C(F)(F)F)c2)n1)NNc1ccccn1,"3.25 µM [falling, full curve, poor fit]"
3,CC(=O)N1c2ccc(-c3ccc(C(=O)O)cc3)cc2[C@H](Nc2ccc(Cl)cc2)C[C@@H]1C,"6.48 µM [falling, partial curve, poor fit]"
4,CN(C)c1nc2c(Br)c(Br)c(Br)c(Br)c2n1CC(=O)O,"36.5 µM [falling, single point]"
5,CC(C)c1nc(CN(C)C(=O)N[C@@H](CCN2CCOCC2)C(=O)N[C@H](CC[C@H](Cc2ccccc2)NC(=O)OCc2cncs2)Cc2ccccc2)cs1,"25.8 µM [falling, single point]"
6,CC[C@@]1([C@@H]2O[C@@H]([C@H]3O[C@@](O)(CO)[C@H](C)C[C@@H]3C)C[C@@H]2C)CC[C@H]([C@]2(C)CCC3(C[C@H](O)[C@@H](C)[C@@H]([C@@H](C)[C@@H](OC)[C@H](C)C(=O)O)O3)O2)O1 (some centres not stated),"0.0015 µM [falling, full curve, poor fit]"
7,Cc1cc(/C=C\c2ccc3cc(N(C)C)ccc3[n+]2C)c(C)n1-c1ccccc1,"2.05 µM [falling, partial curve, poor fit]"
8,CC(C)c1cc(C(=O)N2CC[C@@H](NC(=O)C3CC3)C2)n[nH]1,"29 µM [falling, single point]"
9,C=CC[C@@H]1/C=C(\C)C[C@H](C)C[C@H](OC)[C@H]2O[C@@](O)(C(=O)C(=O)N3CCCC[C@H]3C(=O)O[C@H](/C(C)=C/[C@@H]3CC[C@@H](O)[C@H](OC)C3)[C@H](C)[C@@H](O)CC1=O)[C@H](C)C[C@@H]2OC,"14.5 µM [falling, partial curve, poor fit]"
10,CN1C(N)=N[C@](C)(c2cc(NC(=O)c3ccc(F)cn3)ccc2F)CS1(=O)=O,"25.8 µM [falling, single point]"
11,CC(C)C[C@H](NC(=O)CNC(=O)c1cc(Cl)ccc1Cl)B(O)O,"2.3 µM [falling, partial curve, poor fit]"
12,Cc1noc2c1-c1ccccc1C(c1ccc(Cl)cc1)=N[C@H]2CC(N)=O,"2.9 µM [falling, full curve, poor fit]"
13,C=C[C@@H]1C[C@]1(NC(=O)[C@@H]1C[C@@H](Oc2ncc(OC)c3ccc(Cl)cc23)CN1C(=O)[C@@H](NC(=O)OC(C)(C)C)C(C)(C)C)C(=O)NS(=O)(=O)C1CC1,"0.183 µM [falling, full curve, poor fit]"
14,CC(C)C[C@H](NC(=O)[C@@H](NC(=O)c1cccc(-c2ccccc2)n1)[C@@H](C)O)B(O)O,"0.145 µM [falling, full curve, poor fit]"
15,CC(C)C[C@H](NC(=O)CNC(=O)c1cc(Cl)ccc1Cl)B1OC(=O)C(CC(=O)O)(CC(=O)O)O1,"0.728 µM [falling, full curve]"
